The source of these data is publication PMC4239648.

Chains of the proteins cited; added tags and fusions are not shown. Lines headed by an entry give the natural chain unless they say otherwise; changes in a name come on top.
UniProt Q9I749: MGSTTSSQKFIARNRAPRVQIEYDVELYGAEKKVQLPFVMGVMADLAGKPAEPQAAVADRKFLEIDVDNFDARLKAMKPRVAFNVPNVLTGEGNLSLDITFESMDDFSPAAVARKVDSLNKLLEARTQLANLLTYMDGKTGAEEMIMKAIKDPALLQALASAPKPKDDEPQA

The target of this assay is HsiB1, bacterial two-hybrid fusion (P. aeruginosa PAO1) (UniProt Q9I749). Briefly: two-hybrid; bacterial two-hybrid (BTH): T25 and T18 fusions of B. pertussis adenylate cyclase co-transformed in E. coli DHM1; spots on MacConkey maltose and X-gal LB agar, 30 °C, at least 48 h; β-galactosidase activity in Miller units.

Results are given in words; binding and its absence hold for the method and conditions named. Binding calls can cover weak binding; strength is not graded here. Tags and fused reporters may be left off the sequences shown.

B1: HsiE1, bacterial two-hybrid fusion (protein, UniProt Q9I746 1-281)
chain: MADPSFASGRLGSRLQGSIAMIAEELLRAGRLDDALKALQEQVRSQPSNATLRIFLFQLLAVMGQWARAQNQLKVVGELDASALPMVQTYSTAIDCEALRREVFAGRLTPVILGQPAEWIAPLLQALSLDAEGHGEAAQALREQAFDAAPAVPGRIGEAPFAWLADADTRLGPVLEVIVNGRYAWLPMSNLRSLKVEAPSDLRDLVWLPAELTLANGGATVALLPARYAETVEHGDDAARLGRKTEWLDSGLPVGQRLFVTDAGETALFDLRELDFEPTDA
Turning to B1, the binding entry is “binds”.
